Data as given in PubChem BioAssay AID504786 (Drosophila RNAi Screening Center, 2011).
The screen tested about 21,000 reagents; this is an unselected part of those with a known target gene and a result. 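Primary screen; positive scores mean lost reporter signal, so the sign may be inverted from the usual convention.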 Not all columns of the deposit are shown. Reagent sequences are not shown.

Assay: 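Knock-downs reducing HIF reporter induction by the iron chelator DFO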 (primary screen)
Cells: Drosophila S2 cells with a stable HIF luciferase reporter
Reagents: long dsRNA against Drosophila genes, about 0.2 µg dsRNA per well of a 384-well plate
Timing: three days of knock-down, then 20 h of DFO before reading
Challenge: desferrioxamine (DFO) at 100 µM, an iron chelator that mimics hypoxia, for 20 h
Detection: 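HIF reporter luminescence in cells given 100 µM DFO for 20 h, using the mouse ldh-a hypoxia-response element, scored as per-plate z-scores; higher means greater loss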
Scale: z-score: higher = stronger loss of HIF reporter signal

RpL14 (Ribosomal protein L14) [DRSC11269]
- z-score, replicate 1: 8.2

Naa40 (N(alpha)-acetyltransferase 40) [DRSC16265]
- z-score, replicate 1: -0.3

Sirt6 (Sirtuin 6) [DRSC16010]
- z-score, replicate 1: -0.3

ABCB7 (ATP binding cassette subfamily B member 7) [DRSC08603]
- z-score, replicate 1: -0.3

wupA (wings up A) [DRSC20385]
- z-score, replicate 1: -0.2

PIG-B (Phosphatidylinositol glycan anchor biosynthesis class B) [DRSC08216]
- z-score, replicate 1: -0.3

CNMa (CNMamide) [DRSC08405]
- z-score, replicate 1: 0

CG17104 [DRSC02573]
- z-score, replicate 1: -0.4

cora (coracle) [DRSC07597]
- z-score, replicate 1: -0.2

CG15279 [DRSC01935]
- z-score, replicate 1: -0.3

CR34254 (pseudo) [DRSC09562]
- z-score, replicate 1: 0.3

CG9795 [DRSC12336]
- z-score, replicate 1: -0.1

Spn75F (Serpin 75F) [DRSC09589]
- z-score, replicate 1: -0.2

CG34426 [DRSC09977]
- z-score, replicate 1: -0.1

Cul2 (Cullin 2) [DRSC03710]
- z-score, replicate 1: -0.1

CG31251 [DRSC16247]
- z-score, replicate 1: -0.4

Baldspot [DRSC09671]
- z-score, replicate 1: -0.3

ImpE2 (Ecdysone-inducible gene E2) [DRSC08665]
- z-score, replicate 1: -0.3

exd (extradenticle) [DRSC20330]
- z-score, replicate 1: -0.3

CG9876 [DRSC04586]
- z-score, replicate 1: -0.3

CG7183 [DRSC16210]
- z-score, replicate 1: -0.3

Cad86C (Cadherin 86C) [DRSC15587]
- z-score, replicate 1: -0.4

Cad86C (Cadherin 86C) [DRSC15611]
- z-score, replicate 1: -0.1

Naa60 (N(alpha)-acetyltransferase 60) [DRSC10301]
- z-score, replicate 1: -0.2

SPH93 (Serine protease homolog 93) [DRSC02978]
- z-score, replicate 1: -0.2

AP-2mu (Adaptor Protein complex 2, mu subunit) [DRSC14090]
- z-score, replicate 1: -0.4

CG3638 [DRSC18533]
- z-score, replicate 1: 1.6

rudhira [DRSC19821]
- z-score, replicate 1: -0.1

Axn (Axin) [DRSC14120]
- z-score, replicate 1: 0.1

or (orange) [DRSC04329]
- z-score, replicate 1: -0.4

Naa30A (N(alpha)-acetyltransferase 30 A) [DRSC18583]
- z-score, replicate 1: 1.1

CG4849 [DRSC15662]
- z-score, replicate 1: 3.8

kat80 (katanin 80) [DRSC20344]
- z-score, replicate 1: -0.1

kat80 (katanin 80) [DRSC20345]
- z-score, replicate 1: -0.3

CG4660 [DRSC18378]
- z-score, replicate 1: -0.3

Map205 (Microtubule-associated protein 205) [DRSC16732]
- z-score, replicate 1: -0.2

Ankrd49 [DRSC01894]
- z-score, replicate 1: -0.3

CG42650 [DRSC12462]
- z-score, replicate 1: -0.2

CG2233 [DRSC18217]
- z-score, replicate 1: -0.4

CG1889 [DRSC18195]
- z-score, replicate 1: -0.3

CG32032 [DRSC08961]
- z-score, replicate 1: -0.3

inaF-C [DRSC18902]
- z-score, replicate 1: -0.3

CG31419 [DRSC15771]
- z-score, replicate 1: -0.4

CG9008 [DRSC01889]
- z-score, replicate 1: -0.4

lva (lava lamp) [DRSC18403]
- z-score, replicate 1: -0.1

brat (brain tumor) [DRSC03497]
- z-score, replicate 1: -0.2

bsh (brain-specific homeobox) [DRSC03498]
- z-score, replicate 1: -0.2

CG18048 [DRSC12573]
- z-score, replicate 1: -0.3

Trs20 (TRAPP subunit 20) [DRSC10489]
- z-score, replicate 1: -0.5

bbc (bb in a boxcar) [DRSC06958]
- z-score, replicate 1: -0.3

Mapmodulin [DRSC06956]
- z-score, replicate 1: -0.2

Reformatted: 8 of the entries above
{"gene knocked down":"SPH93 (Serine protease homolog 93)","amplicon":"DRSC02978","z-score, replicate 1":-0.2}
{"gene knocked down":"AP-2mu (Adaptor Protein complex 2, mu subunit)","amplicon":"DRSC14090","z-score, replicate 1":-0.4}
{"gene knocked down":"CG3638","amplicon":"DRSC18533","z-score, replicate 1":1.6}
{"gene knocked down":"rudhira","amplicon":"DRSC19821","z-score, replicate 1":-0.1}
{"gene knocked down":"Axn (Axin)","amplicon":"DRSC14120","z-score, replicate 1":0.1}
{"gene knocked down":"or (orange)","amplicon":"DRSC04329","z-score, replicate 1":-0.4}
{"gene knocked down":"Naa30A (N(alpha)-acetyltransferase 30 A)","amplicon":"DRSC18583","z-score, replicate 1":1.1}
{"gene knocked down":"CG4849","amplicon":"DRSC15662","z-score, replicate 1":3.8}
